Patent publication US20250222109A1, “STRUCTURED LIPID COMPOSITIONS” (Universität Bern, priority 2022, published 2025)
Counter-ions that a name gives are not always drawn. Some entries share one result that the patent states for a list of compounds.

Assay: In vitro release of TOFA and TAC from TIF-Gel, vertical diffusion cells
Type: physicochemical
Excerpt: In the in vitro release experiments, drug-loaded TIF-Gel formulations were placed in the donor chamber of a vertical diffusion cell (as depicted in FIG. 3G) and kept separated from the acceptor chamber by a polycarbonate membrane with pore diameter of 3 μm, which allows the passage of the free drugs only.

time within which drug was released from TIF-Gel [h]	Structure (SMILES)
≤ 8	C=CC[C@@H]1/C=C(\C)C[C@H](C)C[C@H](OC)[C@H]2O[C@@](O)(C(=O)C(=O)N3CCCC[C@H]3C(=O)O[C@H](/C(C)=C/[C@@H]3CC[C@@H](O)[C@H](OC)C3)[C@H](C)[C@@H](O)CC1=O)[C@H](C)C[C@@H]2OC [TAC, tacrolimus]
≤ 8	C[C@@H]1CCN(C(=O)CC#N)C[C@@H]1N(C)c1ncnc2[nH]ccc12 [TOFA, Tofacitinib citrate]
